Measurements from patent US20020018778A1, “Passive desensitization” (priority 1999, published 2002).
Some of these results come from one statement about several compounds together.

Tests used:
[1] = test system: serum IgE from patients with documented peanut hypersensitivity; test: IgE immunoblot mapping of human IgE binding epitopes on synthesized peanut antigen peptides; conditions: human Ara h 2 epitopes (6)+(7) combined; densitometric analysis of the blot
Description: (§1) IGE IMMUNOBLOT ANALYSIS: Membranes to be blotted were prepared either by SDS-PAGE (performed by the method of Laemmli Nature 227:680-685, 1970; incorporated herein by reference) of digested peanut antigen or by synthesis of antigen peptides on a derivativized cellulose membrane. SDS-PAGE gels were composed of 10% acrylamide resolving gel and 4% acrylamide stacking gel. Electrophoretic transfer and immunoblotting on nitrocellulose paper was performed by the procedures of Towbin (Proc. Natl. Acad. Sci. USA 76:4350-4354, 1979; incorporated herein by reference).
[…] […] At least 5 ml of venous blood was drawn from each patient and allowed to clot, and the serum was collected. All studies were approved by the Human Use Advisory Committee at the University of Arkansas for Medical Sciences. Serum was diluted in a solution containing TBS and 1% bovine serum albumin and incubated with antigen for at least 12 h at 4° C. or for 2 h at room temperature. The bound primary antibody was detected with ^125I-labeled anti-IgE antibody (Sanofi Diagnostics Pasteur Inc., Paris, France).
PEPTIDE SYNTHESIS: Individual peptides were synthesized on a derivativized cellulose membrane using Fmoc amino acid active esters according to the manufacturer's instructions (Genosys Biotechnologies, Woodlands, Tex.). […]

[2] = test system: serum IgE from mice sensitized to recombinant Ara h 2; test: IgE immunoblot mapping of murine IgE binding epitopes in Ara h 2; conditions: mouse Ara h 2 epitopes (5)+(6) combined; densitometric analysis of the blot
Description: as §1
For mapping of murine IgE binding sites, a blot containing overlapping 13 mer peptides, offset by 2 amino acids, was incubated with serum from peanut sensitized mice as described in U.S. patent application Ser. No. 09/455,294, filed Dec. 6, 1999; incorporated herein by reference.
PEPTIDE SYNTHESIS: Individual peptides were synthesized on a derivativized cellulose membrane using Fmoc amino acid active esters according to the manufacturer's instructions (Genosys Biotechnologies, Woodlands, Tex.). Fmoc-amino acid derivatives were dissolved in 1-methyl-2-pyrrolidone and loaded on marked spots on the membrane. Coupling reactions were followed by acetylation with a solution of 4% (v/v) acetic anhydride in N,N-dimethyl formamide (DMF). After acetylation, Fmoc groups were removed by incubation of the membrane in 20% (v/v) piperdine in DMF. […]

Row | Substance | contribution to the observed IgE reactivity, two epitopes combined [1] | contribution to the observed IgE reactivity, two epitopes combined [2]
1 | SQDPYSPSPY [Human Ara h 2 epitope (7)] | 40-50% | –
2 | YERDPYSPS [mouse Ara h 2 epitope (5)] | – | 40-50%
3 | YERDPYSPSQ [Human Ara h 2 epitope (6)] | 40-50% | –
4 | YSPSPYD [mouse Ara h 2 epitope (6)] | – | 40-50%
